The source of these data is publication PMC7819943, “Rice protein-binding microarrays: a tool to detect cis-acting elements near promoter regions in rice”.

Chains of the proteins cited; added tags and fusions are not shown.
UniProt Q0JBA9, entry or part of it: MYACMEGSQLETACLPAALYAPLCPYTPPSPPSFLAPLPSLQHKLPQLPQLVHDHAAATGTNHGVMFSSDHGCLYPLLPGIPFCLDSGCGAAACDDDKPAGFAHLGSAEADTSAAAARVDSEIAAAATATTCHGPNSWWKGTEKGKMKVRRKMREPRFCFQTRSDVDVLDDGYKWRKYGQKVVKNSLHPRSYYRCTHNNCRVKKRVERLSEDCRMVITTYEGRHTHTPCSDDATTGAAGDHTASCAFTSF

Some of the results follow.

For this test, the target named is OsWRKY34 (Oryza sativa, UniProt Q0JBA9 1-250). As to the kind of experiment: protein-binding microarray (RPBM); PBS, 2% BSA, 51.3 ng/ul salmon testes DNA, 50 uM zinc acetate, 200 nM TF, 25 C, 1 h; high values mean tight binding. The note with it: protein: recombinant; tags: N-terminal polyhistidine and DsRed monomer fusion (pET32a); label: CyDye5-dUTP incorporated in the synthesized complementary strand; 3' TTTTT single-stranded linker to array surface; dsDNA, one strand shown. The gist of the method:
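The binding signal is fluorescence intensity per feature, in arbitrary units, read on an Axon 4000B scanner. Polyhistidine- and DsRed-tagged transcription factors (N-terminal fusions) from E. coli BL21-CodonPlus were purified on Ni–NTA and applied at 200 nM for 1 h at 25 °C to a double-stranded, BSA-blocked custom Agilent array in buffer with 50 µM zinc acetate.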
Turning to “TCCTGCTCTAGCCACTCATACCACCTTTGTTTTGTTGTTTCGGAGTCACCTAGTGCAG”, the binding signal is 8050 fluorescence intensity (a.u.).

Regarding “CTCTTGGACACTAGTTAAGCAAACAGTACATTTGTTTCGTCGGAGTCACCTAGTGCAG”, the binding signal is 8120 fluorescence intensity (a.u.).

For “CAAACCTTGGACCTATCATACTGGTGTCAAGCGTTTCTTCCGGAGTCACCTAGTGCAG”, the binding signal was 9490 fluorescence intensity (a.u.).

For the sequence “TTTTTTTTTCTTTTTTGAACTCTCTACGCGTCATTTTTTCCGGAGTCACCTAGTGCAG”, the binding signal is 8590 fluorescence intensity (a.u.).

Take “CTCTGCAACCTGCCGTCACCGCCACTACTCAACTCCCTTTCGGAGTCACCTAGTGCAG”: the binding signal is 11100 fluorescence intensity (a.u.).

Turning to “AGGAAGCAACCGGCCAGCCAGCGGTTTGGTTTGGTTTGACCGGAGTCACCTAGTGCAG”, the binding signal was 9200 fluorescence intensity (a.u.).

In the case of “CTCTCCCACGCGCTCTCTCCTCCCTCAGCTCGCCCAAAAACGGAGTCACCTAGTGCAG”, the binding signal is 9140 fluorescence intensity (a.u.).

With “ATATCCCATTCCCACCATTGTTTCTTCCAAGCATATTATCCGGAGTCACCTAGTGCAG”, the binding signal was 11800 fluorescence intensity (a.u.).

“ATTGTTTTTATAGGGGAGGGGAGGCGGGATCGAGCCCGGGCGGAGTCACCTAGTGCAG”: the binding signal was 15100 fluorescence intensity (a.u.).

Turning to “GAACACCTGGTATGCTATACACATAATATGCTACTACAATCGGAGTCACCTAGTGCAG”, the binding signal was 8620 fluorescence intensity (a.u.).

For the sequence “GCAATTTTCGTTTTTGTCACCTGAACACATTGATCATTTTCGGAGTCACCTAGTGCAG”, the binding signal was 10200 fluorescence intensity (a.u.).

For the sequence “ACTGATTAAACTTTTTCACAAATCTGGTATCATTTTTATACGGAGTCACCTAGTGCAG”, the binding signal is 9090 fluorescence intensity (a.u.).

Turning to “CATCACTACCAAATTCGGCTGATCATTCATGCTTTCCATTCGGAGTCACCTAGTGCAG”, the binding signal was 13600 fluorescence intensity (a.u.).

“ACACACACAAACTTCCAACTTTTCTGTCGCATCGTTCCAACGGAGTCACCTAGTGCAG”: the binding signal is 9840 fluorescence intensity (a.u.).

Regarding “CCGGATAATTGTCATTTCTCTGCCTTTTTTATACTAGTCCCGGAGTCACCTAGTGCAG”, the binding signal is 12100 fluorescence intensity (a.u.).

In the case of “ATTTAGCTCTTGTATTTTTTTATATTAGTATTTTAATATACGGAGTCACCTAGTGCAG”, the binding signal was 8250 fluorescence intensity (a.u.).

As to “AGCAGTACAGCCTTCGACCATCCTCACTCTGTTTCCACTTCGGAGTCACCTAGTGCAG”, the binding signal is 8680 fluorescence intensity (a.u.).

Take “TGGTACCCGTCAAATGTCATCCATGTCGCTTCACTTTGCACGGAGTCACCTAGTGCAG”: the binding signal is 12800 fluorescence intensity (a.u.).

In the case of “GGCTTTAGTGTTCAGTTAGGATGTGCGTACCCGCCCCTTCCGGAGTCACCTAGTGCAG”, the binding signal is 8770 fluorescence intensity (a.u.).

Regarding “CACACAGCCGCCCTTGCCGACCGCCACCGCCGCAACCGCACGGAGTCACCTAGTGCAG”, the binding signal is 9780 fluorescence intensity (a.u.).

“GACTAGCCCCGAGCATGCTTTCCTAGCCTCCTTCGTCCTTCGGAGTCACCTAGTGCAG”: the binding signal was 9000 fluorescence intensity (a.u.).

Turning to “ATTTGAAAGATCAAATCTTATCATCCTCGTGTTTCTAATTCGGAGTCACCTAGTGCAG”, the binding signal is 8100 fluorescence intensity (a.u.).

For the sequence “ACAACCACAGGGCTCACCGGCCAGCAACACGTCGACAACCCGGAGTCACCTAGTGCAG”, the binding signal was 8260 fluorescence intensity (a.u.).

For the sequence “CTGCTCCCTATTCGTCCGCGACGGTTCGCCTTCCACTCCGCGGAGTCACCTAGTGCAG”, the binding signal is 9030 fluorescence intensity (a.u.).

Turning to “CCGGCCGACTCTGTCGGTTTCGGTTTCGGGTTGTTTGTTTCGGAGTCACCTAGTGCAG”, the binding signal is 9610 fluorescence intensity (a.u.).

As to “CACCGCTCTGCCTGGCTCCGCTTCCGCTGGCCGCCGTCCTCGGAGTCACCTAGTGCAG”, the binding signal was 9620 fluorescence intensity (a.u.).

“GGTTGTTCCTTGTGTTGGATTTGGTACTCATACTCCTGAACGGAGTCACCTAGTGCAG”: the binding signal was 10600 fluorescence intensity (a.u.).

Regarding “TATATATTTATTGTGCTTTTGTGTATGGGAGGGTGATATGCGGAGTCACCTAGTGCAG”, the binding signal is 9840 fluorescence intensity (a.u.).

For “CTAGACCTAACCTGGAAGCATTTCTCTGTTGTTCCGAAACCGGAGTCACCTAGTGCAG”, the binding signal was 10200 fluorescence intensity (a.u.).

“TCCTCTCTGTGCCTGTGACCGCGATTTCTGAAATCTGTCCCGGAGTCACCTAGTGCAG”: the binding signal was 8690 fluorescence intensity (a.u.).

Turning to “CATCCCATTTTAGGTGTTTTTTTATACAGTTCCTGTTCCTCGGAGTCACCTAGTGCAG”, the binding signal was 8220 fluorescence intensity (a.u.).

Regarding “TTGTACGCATGATTTTTTTCTGGTTCTTTGATCTTTTAATCGGAGTCACCTAGTGCAG”, the binding signal is 9460 fluorescence intensity (a.u.).

Take “CCCGATGGGATTCCGTGTATTAGTTTTTTCTGTTTGTTTGCGGAGTCACCTAGTGCAG”: the binding signal was 9230 fluorescence intensity (a.u.).

“GTGTCTCTTTACTTTTGACAAATGTGGCTGGAAGTTCAATCGGAGTCACCTAGTGCAG”: the binding signal was 8640 fluorescence intensity (a.u.).

For the sequence “GGTCACAGTTTTTTTATGTATATCTCTTCTTTCCAGAAAACGGAGTCACCTAGTGCAG”, the binding signal was 9710 fluorescence intensity (a.u.).

For “GAGCTTGGGGTTGTGTATGGTGGTGGTGGTGTGGTAGCTACGGAGTCACCTAGTGCAG”, the binding signal is 33200 fluorescence intensity (a.u.).

Consider “TCCGTGTATCTGTCTTGGTATGTACTGCTCTCTCAATACACGGAGTCACCTAGTGCAG”, for which the binding signal was 13700 fluorescence intensity (a.u.).

Consider “TATCTGTGTGTTTTGTCCTATGCTTTACATTTCTGGTGGACGGAGTCACCTAGTGCAG”, for which the binding signal is 12300 fluorescence intensity (a.u.).

Regarding “GTCATGAACTTTCAATGCTTCGTAACCAGTTTTGTCAAATCGGAGTCACCTAGTGCAG”, the binding signal is 9170 fluorescence intensity (a.u.).

Take “ACGACACCGAAACCGACTTCCACACCACGCGGGCCCCACACGGAGTCACCTAGTGCAG”: the binding signal was 9290 fluorescence intensity (a.u.).

“GCGACACAGCGGCGGCGGCGAGATCGTCTGCGTCTTCTTCCGGAGTCACCTAGTGCAG”: the binding signal is 8320 fluorescence intensity (a.u.).

For the sequence “ATTGTTTTTTTGAAGCTATGAGTTCTTTTTATCAGCAATTCGGAGTCACCTAGTGCAG”, the binding signal is 8980 fluorescence intensity (a.u.).
